Data source: PubChem BioAssay AID1224830 (NIAID, 2016)
Screen: 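Genes whose knock-down alters the TNF-alpha reporter response to LPS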 (primary screen). Cells: human THP-1 monocytic leukaemia cells, TNF dual-luciferase reporter clone, PMA-differentiated to macrophage-like cells. Reagents: siRNA pool against human genes, 50 nM. Time to read-out: LPS for 4 h, given about 3 days after siRNA transfection. Treatment: bacterial LPS (TLR4 ligand), 10 ng/ml. Detection: 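Ratio of firefly to renilla light, scaled to the plate median and expressed as a robust z-score per replicate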. Direction: TNF reporter robust z-score: higher = stronger TNF reporter response to LPS. Rule for the call: 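a well is active when its z-score exceeds 2.8 or falls below -1.5; control wells carry no call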.
The deposit covers about 18,000 reagents; this is an unselected part. About 2,900 of them (16%) count as active. 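Calls are made per well; low scores hint the gene aids the LPS response, high scores that it dampens it.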 Repeated entries: four replicate wells of each siRNA pool.

no.	gene	TNF reporter robust z-score	Outcome
1	PNKP	1.22	inactive
2	PNKP	0.78	inactive
3	PNKP	2.46	inactive
4	PNKP	1.06	inactive
5	KIF4A	-0.91	inactive
6	KIF4A	-0.82	inactive
7	KIF4A	-1.11	inactive
8	KIF4A	-0.67	inactive
9	ICAM5	3.86	active
10	ICAM5	1.39	inactive
11	ICAM5	0.58	inactive
12	ICAM5	0.89	inactive
13	CTRC	-0.39	inactive
14	CTRC	-1.27	inactive
15	CTRC	0.69	inactive
16	CTRC	0.79	inactive
17	PRKAB2	-0.14	inactive
18	PRKAB2	1.11	inactive
19	PRKAB2	0.56	inactive
20	PRKAB2	-0.1	inactive
21	ZNF583	-0.38	inactive
22	ZNF583	-0.57	inactive
23	ZNF583	0	inactive
24	ZNF583	-0.59	inactive
25	VDAC1	-0.15	inactive
26	VDAC1	1.96	inactive
27	VDAC1	1.09	inactive
28	VDAC1	1.27	inactive
29	ZCCHC12	0.48	inactive
30	ZCCHC12	0.32	inactive
31	ZCCHC12	1.04	inactive
32	ZCCHC12	-0.1	inactive
33	INO80E	1.42	inactive
34	INO80E	0.81	inactive
35	INO80E	0.17	inactive
36	INO80E	-0.26	inactive
37	OR8B8	0.32	inactive
38	OR8B8	0.56	inactive
39	OR8B8	0.17	inactive
40	OR8B8	0.61	inactive

Continued (11 carried over from the part before).
no.	gene	TNF reporter robust z-score	Outcome
30	ZCCHC12	0.32	inactive
31	ZCCHC12	1.04	inactive
32	ZCCHC12	-0.1	inactive
33	INO80E	1.42	inactive
34	INO80E	0.81	inactive
35	INO80E	0.17	inactive
36	INO80E	-0.26	inactive
37	OR8B8	0.32	inactive
38	OR8B8	0.56	inactive
39	OR8B8	0.17	inactive
40	OR8B8	0.61	inactive
41	PRPH2	-1.35	inactive
42	PRPH2	-1.33	inactive
43	PRPH2	-1.51	active
44	PRPH2	-1.12	inactive
45	ASNS	-0.57	inactive
46	ASNS	-0.17	inactive
47	ASNS	0.55	inactive
48	ASNS	0.93	inactive
49	SLC47A1	-1.48	inactive
50	SLC47A1	-0.92	inactive
51	SLC47A1	-1.2	inactive
52	SLC47A1	-1.1	inactive
53	UBN1	-0.05	inactive
54	UBN1	0.11	inactive
55	UBN1	-0.08	inactive
56	UBN1	-0.03	inactive
57	FGFBP1	-0.96	inactive
58	FGFBP1	-1.19	inactive
59	FGFBP1	-1.55	active
60	FGFBP1	-1.53	active
61	SERPINB10	-1.66	active
62	SERPINB10	-0.83	inactive
63	SERPINB10	-1.87	active
64	SERPINB10	-1.49	inactive
65	RHBDL2	0.24	inactive
66	RHBDL2	2.24	inactive
67	RHBDL2	0.27	inactive
68	RHBDL2	2.18	inactive
69	LOC400576 (retired record)	-0.21	inactive
70	LOC400576 (retired record)	-0.13	inactive
71	LOC400576 (retired record)	-0.04	inactive
72	LOC400576 (retired record)	0.54	inactive
73	RRS1	0.93	inactive
74	RRS1	0.2	inactive
75	RRS1	0.46	inactive
76	RRS1	1.63	inactive
77	GNL3	-1.12	inactive
78	GNL3	-0.37	inactive
79	GNL3	1.37	inactive
80	GNL3	-0.29	inactive
81	GHRL	-1.67	active
82	GHRL	-1.32	inactive
83	GHRL	-1.69	active
84	GHRL	-1.8	active
85	PRDX3	0.74	inactive
86	PRDX3	0.81	inactive
87	PRDX3	-0.43	inactive
88	PRDX3	0.73	inactive
89	LMO1	-0.4	inactive
90	LMO1	-0.47	inactive
91	LMO1	-0.22	inactive
92	LMO1	0.93	inactive
93	VWC2	-0.43	inactive
94	VWC2	1.03	inactive
95	VWC2	2.16	inactive
96	VWC2	1.02	inactive
97	TIGAR	0.16	inactive
98	TIGAR	-0.53	inactive
99	TIGAR	-0.55	inactive
100	TIGAR	0.49	inactive
101	SMIM14	-0.76	inactive
102	SMIM14	-0.7	inactive
103	SMIM14	-0.69	inactive
104	SMIM14	0.3	inactive
105	MAK	1.55	inactive
106	MAK	2.85	active
107	MAK	0.69	inactive
108	MAK	3.5	active
109	SNCA	0.81	inactive
110	SNCA	1.55	inactive
111	SNCA	-0.11	inactive
112	SNCA	0.4	inactive
